Experimental data: the supplement of paper PMC4604168 (melanoma cell lines)
The other results are listed elsewhere or left out. Many values rest on one well or one pass, so single values are uncertain.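 The apoptosis fraction was the count of cleaved-PARP antibody-stained nuclei relative to all DNA-stained nuclei, imaged in 1,536-well plates. Screening doses were set so most cells survived, and baseline and induced cleaved-PARP levels vary greatly across cell lines.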

These molecules were tested on RVH-421 (assay: cleaved PARP positive nuclei fraction relative to DMSO control; melanoma cells; higher = more apoptosis). Details: library dose: low library concentration; 72 h.

Going from `O=c1[nH]nc(Sc2ncc([N+](=O)[O-])s2)n1-c1ccc2c(c1)OCCO2` + COc1ccc(COc2ccc(Cc3cnc(N)nc3N)cc2OC)cc1 [GW2580] (first compound 0.2 µM, partner dose 1 µM) to `Cc1cc(Nc2cc(N3CCN(C)CC3)nc(Sc3ccc(NC(=O)C4CC4)cc3)n2)n[nH]1` [Tozasertib] + Cn1cncc1[C@@](N)(c1ccc(Cl)cc1)c1ccc2c(c1)c(-c1cccc(Cl)c1)cc(=O)n2C [tipifarnib] (first compound 0.006 µM, partner dose 0.01 µM), the “cleaved PARP positive nuclei fraction” value falls from 85.4% to 29.3%.

First: COc1cc([C@@H]2c3cc4c(cc3[C@@H](O[C@@H]3O[C@@H]5CO[C@@H](C)O[C@H]5[C@H](O)[C@H]3O)[C@H]3COC(=O)[C@H]23)OCO4)cc(OC)c1O [etoposide] + O=S(=O)(c1ccccc1)N(CC(F)(F)F)c1ccc(C(O)(C(F)(F)F)C(F)(F)F)cc1 [T0901317] (first compound 0.02 µM, partner dose 1.4 µM)
Second: CC[C@]1(O)C[C@H]2CN(CCc3c([nH]c4ccccc34)[C@@](C(=O)OC)(c3cc4c(cc3OC)N(C=O)[C@H]3[C@@](O)(C(=O)OC)[C@H](OC(C)=O)[C@]5(CC)C=CCN6CC[C@]43[C@@H]65)C2)C1 [vincristine] + c1cc(-c2cnn3cc(-c4ccc(OCCN5CCCCC5)cc4)cnc23)ccn1 [Dorsomorphin] (first compound 0.0001 µM, partner dose 0.4 µM)
The “cleaved PARP positive nuclei fraction” value of the first is higher: 201% for the first, 140% for the second.

`O=c1[nH]nc(Sc2ncc([N+](=O)[O-])s2)n1-c1ccc2c(c1)OCCO2` + O=S(=O)(c1ccccc1)N(CC(F)(F)F)c1ccc(C(O)(C(F)(F)F)C(F)(F)F)cc1 [T0901317] (first compound 0.2 µM, partner dose 1.4 µM) was tested, and the “cleaved PARP positive nuclei fraction” value was 145%.
